Values quoted from earlier work as cited in patent US20080138790A1 (priority 2004, published 2008).
At least one compound was matched to its structure with a doubt left.

Details: cited from earlier work

CCCCCCCCCC(=O)N(C)C[C@H](O)[C@@H](O)[C@H](O)[C@H](O)CO [MEGA 10]
CMC: 6 to 7 mM
